Measurements from PubChem BioAssay AID2685 (National Center for Advancing Translational Sciences (NCATS), 2010).
Some of the results follow. Shown are side measurements of this screen, not its main read-out; they come without a call. Most of these compounds were active or inconclusive in the main read-out, so they are no random draw. The note in brackets gives the kind of curve behind each potency; many fits are weak.

Assay: qHTS Assay for Lipid Storage Modulators in Drosophila S3 Cells;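 as to cell number change: cells counted by Cell Tracker Red CMTPX staining in the red channel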
Settings: BODIPY lipid droplet fluorescence, 18-24 h; for cell number change: measured here: cell count max response, cells fed with added oleic acid
Summary of the method: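 Drosophila S3 cells loaded with oleic acid (400 uM, as added) and compounds at several concentrations; lipid droplets imaged by 488-nm laser-scanning cytometry, 500–530 nm intensity and object ratio to cell channel. Percent activity normalized to 20 uM Triacsin C.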

[1] = measured here: lipid fluorescence (Fed channel) AC50, cells fed with added oleic acid
[2] = measured here: cell number channel AC50, cells fed with added oleic acid

SMILES	cell number change	AC50 [1]	AC50 [2]
Cc1ccc(C)c(S(=O)(=O)N/N=C2/CCCc3ccccc32)c1	-1.39%	0.517 µM [rising, full curve, poor fit]	–
O=C1C(=O)N(CCCO)C(c2ccc(Br)cc2)/C1=C(\O)c1ccc(Br)cc1 (centres undefined)	18.9%	18.4 µM [rising, partial curve]	–
Cn1nc(-c2ccc(NCCO)c([N+](=O)[O-])c2)c2ccccc2c1=O	-34%	–	–
O=C(COC(=O)Cc1ccc(Cl)cc1)NC1CCCC1	1.34%	2.31 µM [rising, partial curve, poor fit]	–
COc1cc(NC(=O)COC(=O)CNC(=O)c2cc(C)cc(C)c2)c(C)cc1[N+](=O)[O-]	14.7%	0.461 µM [rising, full curve]	–
CCOC(=O)c1c(NC(=O)Cc2cccs2)sc2c1CCCC2	-17.2%	0.231 µM [rising, full curve, poor fit]	–
Cc1cccc(N2CCN(c3nnc(C(F)(F)F)s3)CC2)c1	-0.315%	7.31 µM [falling, partial curve]	–
Cc1cc(C)nc(N/N=C/c2cc(C)n(CC(F)(F)F)c2C)n1	40.2%	0.13 µM [falling, full curve, poor fit]	–
CCN(CC(=O)NCc1ccc(Cl)cc1)C(=O)CN1C(=O)NC(CC)(c2ccccc2)C1=O (centres undefined)	–	29.1 µM [rising, single point]	–
Cc1ccc(NC(=O)CSc2nnc(Cc3csc(C)n3)o2)cc1	-2.46%	0.58 µM [falling, single point]	–
S=C(NNc1cccc(Cl)c1)NC1CCCCC1	1.78%	0.00461 µM [falling, full curve, poor fit]	–
CCOC(=O)c1cc(-c2ccccc2)sc1NC(=O)C(C)C	-5.03%	0.058 µM [falling, full curve, poor fit]	–
Cc1ccc(S(=O)(=O)/N=S(/C)c2ccccc2)cc1 (centres undefined)	-13.5%	–	–
COc1cccc(-c2nc(CS(=O)(=O)CC(=O)Nc3ccccc3C)c(C)o2)c1	-2.75%	–	–
Cc1c(N2C(=O)c3ccccc3C2(O)c2ccccc2)c(=O)n(-c2ccccc2)n1C (centres undefined)	–	–	4.61 µM [falling, single point]
CC1=CC(c2ccc(Cl)cc2)n2nc(NC(=O)c3ccccc3)nc2N1 (centres undefined)	7.47%	–	–
CCOC(=O)Cc1[nH]nc2c1C(Cc1ccccc1)C(C#N)=C(N)O2 (centres undefined)	-41.7%	23.1 µM [falling, single point]	13 µM [falling, single point]
COc1ccc(CNC(=O)CN2C(=O)C(C)N(c3ccc(C)cc3)C2=O)cc1 (centres undefined)	15.6%	1.16 µM [rising, full curve, poor fit]	–
COC(=O)CCC(=O)OC1(C)C(=O)C=C2C=C3CCCN3C=C2C1=O (centres undefined)	-32.8%	25.9 µM [falling, single point]	18.4 µM [falling, single point]
COC(=O)c1cc(S(=O)(=O)NC2CCN(Cc3ccccc3)CC2)cn1C	-33.5%	29.1 µM [falling, partial curve, poor fit]	–

2 entries from above, as labelled records.
Cc1cccc(N2CCN(c3nnc(C(F)(F)F)s3)CC2)c1
  cell number change: -0.315%
  AC50 [1]: 7.31 µM [falling, partial curve]
Cc1c(N2C(=O)c3ccccc3C2(O)c2ccccc2)c(=O)n(-c2ccccc2)n1C (centres undefined)
  AC50 [2]: 4.61 µM [falling, single point]

(further entries)

SMILES	cell number change	AC50 [1]	AC50 [2]
O=c1oc(-c2cccs2)nc2scc(-c3cccs3)c12	–	7.31 µM [falling, partial curve]	–
CC(C)(C)c1nc2c(C#N)c(-c3ccc(Cl)cc3)ccn2n1	–	–	1.16 µM [rising, partial curve]
O=C(Nc1ccon1)c1cnc2sccn2c1=O	-30%	–	0.00461 µM [falling, full curve, poor fit]
O=S(=O)(NOCc1ccc(Cl)cc1)c1ccc(Cl)cc1	-60.7%	29.1 µM [falling, single point]	23.1 µM [falling, single point]
CCS(=O)(=O)c1nnnn1-c1ccccc1S(C)(=O)=O	-29.2%	18.4 µM [falling, single point]	–
COc1cc(/C=N/N=C/c2cc(OC)c(O)c(OC)c2)cc(OC)c1O	16.8%	–	0.92 µM [falling, full curve, poor fit]
Cc1ccc(C(=O)NC2CCSC2=O)cc1 (centres undefined)	-4.65%	14.6 µM [falling, partial curve]	–
O=C(OCc1ccccc1)N1CCOCCOCCN(C(=O)OCc2ccccc2)CCOCCOCC1	-29.7%	13 µM [falling, partial curve]	–
CCCNC(=O)c1c(N)n(-c2ccc3c(c2)OCO3)c2nc3ccccc3nc12	-5.66%	–	–
Cc1nnc(SCC(=O)NCCN2C(=O)CSC2=O)n1-c1ccccc1	2.73%	–	4.11 µM [rising, single point]
O=C(Cc1ccccc1)NCCC1=CCCCC1	-21%	0.00517 µM [rising, full curve, poor fit]	3.26 µM [falling, single point]
Cc1ccc(S(=O)(=O)NNC(=O)CCC(=O)Nc2ccccc2Cl)cc1	6.23%	11.6 µM [rising, single point]	–
O=S(=O)(c1ccc(SCCOc2ccc(Br)cc2)nc1)N1CCCC1	-39.8%	–	6.51 µM [falling, full curve, poor fit]
CC1CCCN(CCCNC(=O)c2ccc3c(c2)N(Cc2ccccc2F)C(=O)c2ccccc2S3(=O)=O)C1 (centres undefined)	-33%	6.51 µM [falling, single point]	1.03 µM [falling, full curve, poor fit]
COc1ccc(CN(C(=O)c2ccco2)C2CCS(=O)(=O)C2)cc1 (centres undefined)	17.3%	29.1 µM [falling, single point]	–
O=C(COc1ccc(Cl)cc1Cl)Nc1nc2n(n1)C(c1ccccc1)CC(=O)N2 (centres undefined)	-19.2%	0.231 µM [falling, full curve]	–
Cc1c(Cl)cccc1NC(=O)CCN1CCC(C(N)=O)CC1	12.6%	–	–
COc1cc(/C=N/n2c(C3CCCCC3)n[nH]c2=S)cc(Br)c1O	-23.6%	–	–
Cc1cccc(N2CCN(C(=O)c3ccc(CS(=O)Cc4cccc(Cl)c4)o3)CC2)c1C (centres undefined)	-66.3%	–	9.2 µM [falling, single point]
Oc1c(CN2CCCCC2)cc(Br)c2cccnc12	-23.9%	0.116 µM [rising, full curve, poor fit]	–
